The source of these data is publication PMC12326010, “Substrate accessibility regulation of human TopIIa decatenation by cohesin” (Nature Communications, 2025).

Protein sequences, listed by entry. Tags and fused reporters are not part of them.
UniProt Q9UQE7: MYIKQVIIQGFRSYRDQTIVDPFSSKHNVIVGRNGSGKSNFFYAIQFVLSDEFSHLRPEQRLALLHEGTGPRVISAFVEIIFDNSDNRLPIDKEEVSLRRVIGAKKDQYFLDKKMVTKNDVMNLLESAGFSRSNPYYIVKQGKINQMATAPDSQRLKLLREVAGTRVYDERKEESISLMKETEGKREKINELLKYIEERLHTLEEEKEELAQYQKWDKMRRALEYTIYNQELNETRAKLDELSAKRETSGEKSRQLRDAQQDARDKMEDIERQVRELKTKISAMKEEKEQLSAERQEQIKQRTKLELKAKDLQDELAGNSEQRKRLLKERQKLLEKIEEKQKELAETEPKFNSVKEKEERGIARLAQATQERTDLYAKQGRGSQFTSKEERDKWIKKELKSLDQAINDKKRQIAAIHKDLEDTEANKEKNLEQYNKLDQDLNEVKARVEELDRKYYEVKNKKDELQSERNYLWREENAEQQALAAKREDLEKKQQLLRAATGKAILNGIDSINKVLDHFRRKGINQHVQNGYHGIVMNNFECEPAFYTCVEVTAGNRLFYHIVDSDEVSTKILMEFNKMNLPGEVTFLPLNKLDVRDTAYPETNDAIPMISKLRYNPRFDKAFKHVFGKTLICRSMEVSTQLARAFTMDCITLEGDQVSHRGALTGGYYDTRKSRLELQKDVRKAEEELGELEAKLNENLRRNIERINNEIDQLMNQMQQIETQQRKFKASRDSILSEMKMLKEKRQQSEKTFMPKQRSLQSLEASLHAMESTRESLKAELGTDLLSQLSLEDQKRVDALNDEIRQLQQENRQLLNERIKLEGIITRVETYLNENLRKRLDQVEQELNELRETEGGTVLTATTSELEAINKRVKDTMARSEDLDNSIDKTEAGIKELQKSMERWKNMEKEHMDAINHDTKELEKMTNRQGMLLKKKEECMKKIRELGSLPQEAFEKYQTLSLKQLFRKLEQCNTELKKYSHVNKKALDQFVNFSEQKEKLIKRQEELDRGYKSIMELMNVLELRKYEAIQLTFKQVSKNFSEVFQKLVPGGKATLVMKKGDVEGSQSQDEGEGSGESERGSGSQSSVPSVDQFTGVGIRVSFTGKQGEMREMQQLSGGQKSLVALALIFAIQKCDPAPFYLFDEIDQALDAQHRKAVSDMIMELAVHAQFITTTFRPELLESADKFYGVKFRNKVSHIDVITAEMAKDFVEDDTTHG

These are yes or no findings as the source states them, for the method shown. Some binding calls cover weakened binding; strength is not graded here. Tags and fused reporters may be left off the sequences shown.

This test concerns the target T1, Human cohesin subunit STAG1 with C-terminal 3C-ybbr-tev-strepII tag (human) (UniProt Q8WVM7).
T1 sequence: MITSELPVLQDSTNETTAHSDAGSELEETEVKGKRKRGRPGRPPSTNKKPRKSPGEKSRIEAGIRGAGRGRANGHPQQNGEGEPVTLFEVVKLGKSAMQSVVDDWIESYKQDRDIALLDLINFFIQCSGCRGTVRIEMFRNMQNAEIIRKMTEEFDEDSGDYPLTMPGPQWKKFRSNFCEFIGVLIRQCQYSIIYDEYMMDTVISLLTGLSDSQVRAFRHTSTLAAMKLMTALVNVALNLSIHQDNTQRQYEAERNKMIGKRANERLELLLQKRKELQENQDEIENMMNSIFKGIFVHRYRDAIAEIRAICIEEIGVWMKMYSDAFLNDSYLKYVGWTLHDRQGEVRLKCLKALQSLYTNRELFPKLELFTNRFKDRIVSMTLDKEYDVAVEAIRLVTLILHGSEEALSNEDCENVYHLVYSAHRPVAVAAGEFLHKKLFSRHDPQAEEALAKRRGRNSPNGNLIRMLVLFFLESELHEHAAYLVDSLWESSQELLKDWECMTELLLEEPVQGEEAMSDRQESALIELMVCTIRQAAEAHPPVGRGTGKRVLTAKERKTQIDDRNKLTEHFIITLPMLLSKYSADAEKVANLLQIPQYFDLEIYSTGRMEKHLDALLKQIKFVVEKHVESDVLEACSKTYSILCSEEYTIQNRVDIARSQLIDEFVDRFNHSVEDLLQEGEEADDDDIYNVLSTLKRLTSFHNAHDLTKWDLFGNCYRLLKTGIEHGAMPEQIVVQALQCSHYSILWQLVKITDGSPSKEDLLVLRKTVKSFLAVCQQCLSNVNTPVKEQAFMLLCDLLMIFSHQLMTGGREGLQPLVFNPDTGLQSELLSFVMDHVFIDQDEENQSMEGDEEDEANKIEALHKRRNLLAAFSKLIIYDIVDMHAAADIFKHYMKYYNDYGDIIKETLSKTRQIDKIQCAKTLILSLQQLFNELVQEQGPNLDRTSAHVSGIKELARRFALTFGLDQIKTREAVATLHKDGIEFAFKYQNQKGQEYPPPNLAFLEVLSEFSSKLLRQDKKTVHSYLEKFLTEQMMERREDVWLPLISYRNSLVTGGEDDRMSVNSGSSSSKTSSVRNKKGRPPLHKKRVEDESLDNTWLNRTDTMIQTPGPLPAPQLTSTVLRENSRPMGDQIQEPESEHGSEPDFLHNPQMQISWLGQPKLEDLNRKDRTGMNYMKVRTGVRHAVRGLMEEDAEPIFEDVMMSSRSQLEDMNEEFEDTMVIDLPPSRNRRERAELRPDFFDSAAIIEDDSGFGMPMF
Put plainly: co-purification (Strep affinity, heparin, size exclusion); cohesin STAG1 tetramer co-expressed in insect cells; lysate loaded on StrepTrap HP (StrepII on STAG1), eluted with desthiobiotin, HiTrap Heparin, Superose 6; 20 mM HEPES pH 8, 300 mM KCl, 5 mM MgCl2, 1 mM DTT, 10% glycerol. (SEC sorts molecules by how far they enter the pores of the column.)

On to “Human cohesin subunit SMC3 with C-terminal 3C-His10 tag (from UniProt Q9UQE7 1-1217)”, for which the binding entry is listed as “binds”.
